Results deposited as PubChem BioAssay AID743448 (Peter MacCallum Cancer Centre, 2014)
This is a random part of the 106 reagents, in one setting of the screen. 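Calls are per line and drug panel including etoposide, not vorinostat-specific; gene picks needed hits in two or more extra lines with vorinostat versus etoposide.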 Entries without a mark were called inactive. Further read-outs or replicates are left out here.

Aim: 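Find knock-downs giving vorinostat-specific cell death in several colon cancer lines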 (follow-up of hits)
Cell system: four human colon cancer cell lines: HCT116-VR (vorinostat-resistant HCT116 derivative), SW480, SW620 and LIM1215
Reagents: siRNA pool against human genes, 40 nM siRNA pool
Duration: drug added two days after transfection, read one day later
Treatment: vorinostat 2.5 µM on one half of each plate, etoposide 5 µM on the other half
Cell line and drug panel: SW480 cells with vorinostat
Detection: 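Caspase luminescence and viability fluorescence, each expressed relative to mock transfection and also as robust z-scores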
Reading the numbers: caspase ratio to mock: higher = more caspase activity than mock; viability ratio to mock: higher = more live cells than mock; caspase robust z-score: higher = more caspase activity, more apoptosis
Call rule: 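a row is a hit if caspase relative to mock is 1.6 or above or viability relative to mock is 0.75 or below; wells dying heavily without drug are not called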
Meaning of the calls: active = caspase or viability hit in this panel; inactive = no change, or unhealthy well

| gene symbol | PubChem SID | caspase ratio to mock | viability ratio to mock | caspase robust z-score |
| --- | --- | --- | --- | --- |
| NUP54 | SID135623354 | 1.49 | 0.88 | -0.46 |
| MRPL19 | SID152149113 | 2.05 (active) | 0.92 | 0.74 |
| POLR2G | SID134315701 | 1.99 (active) | 0.72 | 0.59 |
| PSMA7 | SID134310318 | 1.8 (active) | 0.88 | 0.18 |
| CAPN12 | SID134311229 | 1.22 | 0.74 | -1.04 |
| CDK10 | SID152152801 | 1.64 (active) | 0.96 | -0.16 |
| FANCA | SID135623718 | 2.02 (active) | 0.94 | 0.66 |
| SEMA4F | SID152155663 | 1.88 (active) | 0.84 | 0.38 |
| TGM5 | SID135621811 | 1.6 (active) | 0.94 | -0.23 |
| THAP3 | SID135625034 | 1.26 | 0.76 | -0.96 |
| MTF2 | SID135622402 | 1.08 (active) | 0.72 | -1.33 |
| SCRT2 | SID152148323 | 1.98 (active) | 0.9 | 0.58 |
| MED28 | SID152155386 | 1.52 | 0.66 | -0.4 |
| PSMD4 | SID152147605 | 2.24 (active) | 0.92 | 1.13 |
| SLU7 | SID152150851 | 1.69 (active) | 0.65 | -0.04 |
| C22orf15 | SID135623572 | 2.12 (active) | 1 | 0.88 |
| CCNK | SID152155051 | 2.29 (active) | 0.88 | 1.25 |
| EIF4A1 | SID135623929 | 1.12 | 0.84 | -1.25 |
| OR6T1 | SID135624576 | 1.62 (active) | 0.79 | -0.2 |
| EIF2B2 | SID152153708 | 1.42 | 0.88 | -0.61 |
| LCE2A | SID134322845 | 2.06 (active) | 0.79 | 0.77 |
| TFAP2D | SID135622988 | 2.19 (active) | 1.09 | 1.03 |
| NFYA | SID134313982 | 1.71 (active) | 0.7 | 0.02 |
| MAGOH | SID134315673 | 1.04 | 1.12 | -1.43 |
| GNG8 | SID135625055 | 1.68 (active) | 0.76 | -0.07 |
| POLR2J | SID152155691 | 1.44 | 0.82 | -0.57 |
| OR2W5 | SID135625137 | 1.54 | 1 | -0.34 |
| CSE1L | SID135620825 | 2.19 (active) | 1.07 | 1.05 |
| PUF60 | SID134316770 | 2.58 (active) | 0.87 | 1.88 |
| PSMD13 | SID135622112 | 1.6 (active) | 0.81 | -0.24 |
| AKAP8 | SID56479229 | 2.33 (active) | 1.16 | 1.32 |
| POLR2L | SID134317368 | 1.48 (active) | 0.74 | -0.51 |
| RBM42 | SID134319687 | 1.14 | 0.87 | -1.23 |
| THOC5 | SID152147517 | 1.65 (active) | 0.94 | -0.11 |
| EIF3L | SID135624088 | 1.55 | 1 | -0.33 |
| DDX18 | SID134317676 | 0.97 | 1.01 | -1.58 |
| CCDC59 | SID152156179 | 1.57 | 0.8 | -0.29 |
| OSBPL6 | SID134314182 | 1.68 (active) | 1 | -0.06 |
| RERE | SID135621556 | 1.75 (active) | 1.1 | 0.1 |

Next part, starting with the last 6 of the part before.
| gene symbol | PubChem SID | caspase ratio to mock | viability ratio to mock | caspase robust z-score |
| --- | --- | --- | --- | --- |
| THOC5 | SID152147517 | 1.65 (active) | 0.94 | -0.11 |
| EIF3L | SID135624088 | 1.55 | 1 | -0.33 |
| DDX18 | SID134317676 | 0.97 | 1.01 | -1.58 |
| CCDC59 | SID152156179 | 1.57 | 0.8 | -0.29 |
| OSBPL6 | SID134314182 | 1.68 (active) | 1 | -0.06 |
| RERE | SID135621556 | 1.75 (active) | 1.1 | 0.1 |
| KIR2DL1 | SID135624029 | 2.12 (active) | 1.17 | 0.89 |
| RNF186 | SID152150401 | 1 | 1.02 | -1.5 |
| DDX19B | SID135622538 | 2 (active) | 1.08 | 0.64 |
| AQR | SID152153754 | 1.56 (active) | 0.75 | -0.32 |
| TDP2 | SID134321508 | 2.03 (active) | 0.83 | 0.76 |
| THAP1 | SID135624170 | 1.53 | 1 | -0.38 |
| SH3GLB2 | SID135623023 | 1.35 | 0.98 | -0.77 |
| HSPA6 | SID134323241 | 2.3 (active) | 0.8 | 1.27 |
| EIF1AX | SID135622096 | 1.12 | 0.78 | -1.26 |
| POLR2I | SID134316532 | 2.56 (active) | 0.9 | 1.83 |
| CNOT3 | SID134324038 | 2.41 (active) | 0.9 | 1.5 |
| SIN3A | SID134317232 | 1.64 (active) | 1.02 | -0.14 |
| EIF2S1 | SID152150098 | 1.25 | 0.77 | -0.98 |
| ZNF441 | SID134320882 | 1.64 (active) | 0.98 | -0.13 |
| NUP133 | SID135622504 | 1.79 (active) | 0.8 | 0.18 |
| CNOT1 | SID134319414 | 1.48 | 0.46 | -0.46 |
| RGS18 | SID135621582 | 1.68 (active) | 1.12 | -0.06 |
| C1orf52 | SID152148955 | 1.53 | 1.03 | -0.36 |
| VAX1 | SID135625018 | 2.22 (active) | 0.9 | 1.1 |
| GLI1 | SID134310142 | 1.12 | 0.94 | -1.24 |
| MED26 | SID135622229 | 2.02 (active) | 0.68 | 0.66 |
| UTP3 | SID134324596 | 1.28 (active) | 0.75 | -0.92 |
| LBHD1 | SID152153391 | 1.82 (active) | 0.87 | 0.24 |
| DPPA5 | SID152154995 | 1.55 | 1.01 | -0.34 |
